Record: PubChem BioAssay AID686943 (Drosophila RNAi Screening Center, 2013)
The screen tested about 23,000 reagents; below is a random part of those with a known target gene and a result. 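Extra replicates exist only for a retested subset of genes; insulin dose and duration not given; both raised and lowered dpERK matter.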 Names joined by + are all predicted targets of the reagent. Further read-outs or replicates are left out here. No sequences are given here. Not given: the amount of reagent, the time to read-out.

- Test: 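Fly genes whose loss alters ERK activation after insulin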 (primary screen)
- Cell system: Drosophila S2R+ haemocyte-like cells expressing YFP-tagged ERK (Rolled)
- Knock-down reagent: long dsRNA against Drosophila genes
- Treatment: insulin stimulation versus unstimulated cells; dose and duration not given
- Detection: 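Per-plate z-scores of phospho-ERK immunostaining normalised to YFP-tagged ERK, measured with and without insulin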
- Reading the numbers: replicate 1, z-score of dpERK with insulin: higher = more active ERK per ERK-YFP after insulin

Target gene,DRSC id,"replicate 1, z-score of dpERK with insulin"
Vha100-2 (Vacuolar H[+] ATPase 100kD subunit 2),DRSC14152,0.56
Hel89B (Helicase 89B),DRSC16700,0.94
Hel89B (Helicase 89B),DRSC21575,-0.23
Nplp3 (Neuropeptide-like precursor 3),DRSC09944,1.54
CG8507,DRSC16435,-0.08
Osi17 (Osiris 17),DRSC12284,-0.33
CG43393,DRSC03917,-0.91
IntS12 (Integrator 12),DRSC15818,-1.37
CG12480,DRSC19460,1.31
RpL32 (Ribosomal protein L32),DRSC16835,1.51
Acp1 (Adult cuticle protein 1),DRSC01854,-0.22
CG13564,DRSC04201,-0.1
CG43386,DRSC17980,-0.38
CG8191,DRSC20091,0.68
CG2217 + CG42740,DRSC14141,-0.69
CG14708,DRSC14930,-0.5
CG4822,DRSC00669,-0.42
Acp53C14a (Accessory gland protein 53C14a),DRSC07224,0.59
Dic1,DRSC14125,-0.34
CG15544,DRSC15082,1.21
Wnt5 (Wnt oncogene analog 5),DRSC20300,0.29
Hsc70-4 (Heat shock protein 70 cognate 4),DRSC16711,-0.37
CG33331 + CG33332,DRSC22928,0.07
ppk19 (pickpocket 19),DRSC15321,0.49
"Pp1-Y2 (Protein phosphatase 1, Y-linked 2)",DRSC21608,-2.93
Cyp313a5 (Cytochrome P450 313a5),DRSC16628,1.03
CG4238,DRSC00090,1.57
CG4238,DRSC00644,0.28
p47,DRSC06046,-0.66
CG13984,DRSC02316,-0.39

Next part, starting with the last 8 of the part before.
Target gene,DRSC id,"replicate 1, z-score of dpERK with insulin"
CG33331 + CG33332,DRSC22928,0.07
ppk19 (pickpocket 19),DRSC15321,0.49
"Pp1-Y2 (Protein phosphatase 1, Y-linked 2)",DRSC21608,-2.93
Cyp313a5 (Cytochrome P450 313a5),DRSC16628,1.03
CG4238,DRSC00090,1.57
CG4238,DRSC00644,0.28
p47,DRSC06046,-0.66
CG13984,DRSC02316,-0.39
CG31805,DRSC01563,1
CG42367,DRSC21388,-0.62
HP6 (Heterochromatin protein 6),DRSC00471,0.2
azot (ahuizotl),DRSC06051,0.59
CG9784,DRSC20210,0.14
Zip89B (Zinc/iron regulated transporter-related protein 89B),DRSC16128,0.2
Ir94e (Ionotropic receptor 94e),DRSC15229,1.81
CYTB (retired record),DRSC21272,0.17
CG9636,DRSC16529,-0.13
CG16957,DRSC02545,0.27
CG44774,DRSC18342,-0.06
RpL24 (Ribosomal protein L24),DRSC03185,-2.68
CG33679,DRSC01436,-0.4
CG17806,DRSC15276,0.15
CG13284,DRSC02256,-0.01
Naxe (NAD(P)HX epimerase),DRSC18251,0.33
snoRNA:Me28S-C3420b + RpS11,DRSC07396,0.08
kek1 (kekkon 1),DRSC03551,-0.32
CG17349,DRSC02610,-0.48
CG30491,DRSC21472,0.99
CG6621,DRSC16076,0.28
Hsf (Heat shock factor),DRSC07443,-0.04
eIF3d2 (eukaryotic translation initiation factor 3 subunit d2),DRSC15651,-0.33
CG4115,DRSC15545,-1.37
Usp10 (Ubiquitin specific protease 10),DRSC08282,0.77
Usp10 (Ubiquitin specific protease 10),DRSC08373,-0.24
Arglu1 (Arginine and glutamate rich 1),DRSC02909,-0.33
ImpE1 (Ecdysone-inducible gene E1),DRSC11195,-0.09
ImpE1 (Ecdysone-inducible gene E1),DRSC11196,0.03
Tollo,DRSC11305,1.49
TwdlG (TweedleG),DRSC12229,0.28
CG43125,DRSC13866,-0.28
RhoGAP54D (Rho GTPase activating protein at 54D),DRSC06990,-0.12
feo (fascetto),DRSC19398,-0.85
bru3 (bruno 3),DRSC09280,0.09
bru3 (bruno 3),DRSC09291,-0.51
bru3 (bruno 3),DRSC09292,-0.46
bru3 (bruno 3),DRSC09687,0.09
bru3 (bruno 3),DRSC09887,0.32
bru3 (bruno 3),DRSC22732,-0.02
CG10413,DRSC02052,-0.84
CG30178,DRSC21911,-0.33
CheB42b (Chemosensory protein B 42b),DRSC22878,-0.45
